Measurements: the supplement of paper PMC4604168 (melanoma cell lines)
Some of the results follow. Repeats are few or missing, and single values can be far off.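 The apoptosis fraction was the count of cleaved-PARP antibody-stained nuclei relative to all DNA-stained nuclei, imaged in 1,536-well plates. Screening doses were set so most cells survived, and baseline and induced cleaved-PARP levels vary greatly across cell lines.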

Assays:
Assay in all cases: cleaved PARP positive nuclei fraction relative to DMSO control; melanoma cells; higher = more apoptosis
Conditions in all cases: library dose: low library concentration; 72 h
501Mel = tested on: 501Mel
A101D = tested on: A101D
A2058 = tested on: A2058
A375 = tested on: A375
C32 = tested on: C32
CBRC013 = tested on: CBRC013 (line from a melanoma biopsy)
CBRC014 = tested on: CBRC014 (line from a melanoma biopsy)
CBRC016 = tested on: CBRC016 (line from a melanoma biopsy)
CBRC017 = tested on: CBRC017 (line from a melanoma biopsy)

Structure (SMILES) | cleaved PARP positive nuclei fraction (501Mel) [%] | cleaved PARP positive nuclei fraction (A101D) [%] | cleaved PARP positive nuclei fraction (A2058) [%] | cleaved PARP positive nuclei fraction (A375) [%] | cleaved PARP positive nuclei fraction (C32) [%] | cleaved PARP positive nuclei fraction (CBRC013) [%] | cleaved PARP positive nuclei fraction (CBRC014) [%] | cleaved PARP positive nuclei fraction (CBRC016) [%] | cleaved PARP positive nuclei fraction (CBRC017) [%]
CCN(CC)CCCCNc1ncc2cc(-c3cc(OC)cc(OC)c3)c(NC(=O)NC(C)(C)C)nc2n1 + COc1cc2ncnc(Nc3ccc(Oc4ccccc4)cc3)c2cc1OC [SrcI1] (first compound 0.1 µM, partner dose 2 µM) | 73.8 | 181 | 35.4 | 76.6 | 100 | 42 | 70.5 | 69.9 | 65.8
O=C(O)C(=O)Nc1sc2c(c1C(=O)O)CCNC2 + CC(C)CCN1c2nc(Nc3cc(F)c(O)c(F)c3)ncc2N(C)C(=O)C1C [BID1870] (first compound 1.66667 µM, partner dose 0.2 µM) | 170 | 42.5 | 23 | 120 | 67.2 | 383 | 83 | 146 | 79.7
NCC(=O)Nc1ccc(-n2nc(C(F)(F)F)cc2-c2ccc3c(ccc4ccccc43)c2)cc1 + Oc1cc(-c2nc(-c3ccccc3)[nH]c2-c2ccncc2)ccc1Cl [L779450] (first compound 1 µM, partner dose 0.2 µM) | 80.3 | 99.3 | 101 | 2200 | 104 | 130 | 98 | 36 | 97.4
N#Cc1c(O)c2c(-c3ccc(-c4ccccc4O)cc3)csc2[nH]c1=O + COc1ccc(COc2ccc(Cc3cnc(N)nc3N)cc2OC)cc1 [GW2580] (first compound 2 µM, partner dose 1 µM) | 100 | 56.5 | 58.6 | 146 | 100 | 193 | 100 | 84.9 | 76.3
NCC(=O)Nc1ccc(-n2nc(C(F)(F)F)cc2-c2ccc3c(ccc4ccccc43)c2)cc1 + Oc1nc(-c2ccc(C(F)(F)F)cc2)nc2c1CSCC2 [XAV939] (first compound 1 µM, partner dose 2 µM) | 543 | 79 | 183 | 8440 | 72.2 | 246 | 95.2 | 25 | 82.5
COc1cc2ncnc(Nc3ccc(Oc4ccccc4)cc3)c2cc1OC + COc1cc(N2CCC(N3CCN(C)CC3)CC2)ccc1Nc1ncc(Cl)c(Nc2ccccc2S(=O)(=O)C(C)C)n1 [NVP-TAE684] (first compound 2 µM, partner dose 0.08 µM) | 79.4 | 97.9 | 174 | 158 | 139 | 94.3 | 94.3 | 79.7 | 98.9
COc1ccc(COc2ccc(Cc3cnc(N)nc3N)cc2OC)cc1 + COc1cc(N2CCC(N3CCN(C)CC3)CC2)ccc1Nc1ncc(Cl)c(Nc2ccccc2S(=O)(=O)C(C)C)n1 [NVP-TAE684] (first compound 1 µM, partner dose 0.08 µM) | 73.4 | 52.8 | 131 | 291 | 73.1 | 178 | 101 | 15.9 | 34.5
CN(C)S(=O)(=O)c1ccc2c(c1)/C(=C/c1cc3c([nH]1)CCCC3)C(=O)N2 + Oc1nc(-c2ccc(C(F)(F)F)cc2)nc2c1CSCC2 [XAV939] (first compound 0.4 µM, partner dose 2 µM) | 68.4 | 102 | 59.9 | 27.7 | 200 | 87.9 | 104 | 92.3 | 74.7
COc1ccc2c(c1)CCC1C2CCC2(C)C(NCCCCCCN3C(=O)C=CC3=O)CCC12 (stereo not drawn) + Cn1cc(/C=C2\C(=O)Nc3cccnc32)c2ccccc21 [GW441756] (first compound 0.4 µM, partner dose 0.4 µM) | 40.5 | 104 | 124 | 666 | 122 | 79.6 | 142 | 139 | 94.7
O=C(Nc1ccccc1)c1cc([N+](=O)[O-])ccc1Cl + COc1ccc2c(c1)CCC1C2CCC2(C)C(NCCCCCCN3C(=O)C=CC3=O)CCC12 [U73122] (first compound 2 µM, partner dose 0.4 µM) | 48.1 | 180 | 65.6 | 70.2 | 68 | 109 | 93.4 | 182 | 70.7
CCc1ccc(CCOc2ccc(CC3SC(=O)NC3=O)cc2)nc1 (stereo not drawn) [pioglitazone] + COc1ccc(COc2ccc(Cc3cnc(N)nc3N)cc2OC)cc1 [GW2580] (first compound 2 µM, partner dose 1 µM) | 295 | 113 | 46.2 | 39.6 | 131 | 116 | 84.1 | 63.4 | 80.5
Oc1nc(-c2ccc(C(F)(F)F)cc2)nc2c1CSCC2 + c1cc(-c2cnn3cc(-c4ccc(OCCN5CCCCC5)cc4)cnc23)ccn1 [Dorsomorphin] (first compound 2 µM, partner dose 0.4 µM) | 78.9 | 238 | 64.1 | 178 | 141 | 112 | 89.1 | 42 | 87.6

A run of entries taken from the entries so far, for reference:
Structure (SMILES) | cleaved PARP positive nuclei fraction (501Mel) [%] | cleaved PARP positive nuclei fraction (A101D) [%] | cleaved PARP positive nuclei fraction (A2058) [%] | cleaved PARP positive nuclei fraction (A375) [%] | cleaved PARP positive nuclei fraction (C32) [%] | cleaved PARP positive nuclei fraction (CBRC013) [%] | cleaved PARP positive nuclei fraction (CBRC014) [%] | cleaved PARP positive nuclei fraction (CBRC016) [%] | cleaved PARP positive nuclei fraction (CBRC017) [%]
CCc1ccc(CCOc2ccc(CC3SC(=O)NC3=O)cc2)nc1 (stereo not drawn) [pioglitazone] + COc1ccc(COc2ccc(Cc3cnc(N)nc3N)cc2OC)cc1 [GW2580] (first compound 2 µM, partner dose 1 µM) | 295 | 113 | 46.2 | 39.6 | 131 | 116 | 84.1 | 63.4 | 80.5
Oc1nc(-c2ccc(C(F)(F)F)cc2)nc2c1CSCC2 + c1cc(-c2cnn3cc(-c4ccc(OCCN5CCCCC5)cc4)cnc23)ccn1 [Dorsomorphin] (first compound 2 µM, partner dose 0.4 µM) | 78.9 | 238 | 64.1 | 178 | 141 | 112 | 89.1 | 42 | 87.6
